This assay has as its target T1, 3xFLAG-MINA R125G/K126G (NoLS mutant) (UniProt Q8IUF8).
T1 sequence: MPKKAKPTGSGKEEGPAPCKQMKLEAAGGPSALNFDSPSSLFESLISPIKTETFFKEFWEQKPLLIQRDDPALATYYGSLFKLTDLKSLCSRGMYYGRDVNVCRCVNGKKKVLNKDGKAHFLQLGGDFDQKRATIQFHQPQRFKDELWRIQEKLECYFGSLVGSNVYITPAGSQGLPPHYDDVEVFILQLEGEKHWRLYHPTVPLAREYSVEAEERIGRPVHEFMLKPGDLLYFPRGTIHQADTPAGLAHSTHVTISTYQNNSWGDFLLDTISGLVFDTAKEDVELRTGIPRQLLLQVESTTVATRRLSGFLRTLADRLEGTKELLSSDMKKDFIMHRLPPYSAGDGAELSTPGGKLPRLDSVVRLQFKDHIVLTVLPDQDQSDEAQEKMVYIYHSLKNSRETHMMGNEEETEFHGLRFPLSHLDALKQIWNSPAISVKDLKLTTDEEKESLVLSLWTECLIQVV
Briefly: affinity purification with mass spectrometry.

No constants are given. Whether binding was seen depends on the method and setting. Binding seen in cells or lysates may run through a third protein. Here binding means that the protein was enriched with, or labelled near, the bait; the list need not be complete. Sequences can lack the tags named with a protein.

B1: endogenous MPP6 (membrane palmitoylated protein 6) (protein, UniProt Q9NZW5 1-540)
chain: MQQVLENLTELPSSTGAEEIDLIFLKGIMENPIVKSLAKAHERLEDSKLEAVSDNNLELVNEILEDITPLINVDENVAELVGILKEPHFQSLLEAHDIVASKCYDSPPSSPEMNNSSINNQLLPVDAIRILGIHKRAGEPLGVTFRVENNDLVIARILHGGMIDRQGLLHVGDIIKEVNGHEVGNNPKELQELLKNISGSVTLKILPSYRDTITPQQVFVKCHFDYNPYNDNLIPCKEAGLKFSKGEILQIVNREDPNWWQASHVKEGGSAGLIPSQFLEEKRKAFVRRDWDNSGPFCGTISSKKKKKMMYLTTRNAEFDRHEIQIYEEVAKMPPFQRKTLVLIGAQGVGRRSLKNRFIVLNPTRFGTTVPFTSRKPREDEKDGQAYKFVSRSEMEADIKAGKYLEHGEYEGNLYGTKIDSILEVVQTGRTCILDVNPQALKVLRTSEFMPYVVFIAAPELETLRAMHKAVVDAGITTKLLTDSDLKKTVDESARIQRAYNHYFDLIIINDNLDKAFEKLQTAIEKLRMEPQWVPISWVY
With B1, the binding result is listed as “binds”.

The values are drawn from paper doi:10.1101/2023.03.15.532818.
